Experimental data from US20100197710A1, “Methods Of Activating IRS-1 And AKT” (MELIOR PHARMACEUTICALS I, INC., priority 2007, published 2010).

Experiment: Effect on blood insulin, leptin and corticosterone level
Format: in vivo
Conditions: mice, one hour after administration, FIG. 1

Cc1cccc(Oc2cnc(=O)[nH]c2)c1 [Compound 102]
did not effect: blood level of corticosterone | blood level of insulin | blood level of leptin
